Laboratory results: US20100172991A1, “Extended Release Formulation and Methods of Treating Adrenergic Dysregulation” (priority 2007, published 2010)

Test system: systolic and diastolic blood pressure
Settings: sigmoidal Emax model, Day 25 exposure
Procedure: Mean baseline ABPM data for the three treatment groups were compared with mean data obtained on Day 26 (last day of treatment) and on Days 27 and 28. A more detailed PK/PD analysis was conducted by using the individual patient ABPM data to compare the blood pressure profile at Baseline and on Day 26 of treatment. The daytime (0- to 12-hour) intervals were used in the analysis, since pharmacokinetic data were collected on Day 25, over the daytime 12-hour dosing interval at steady state. In order to investigate the maintenance of effect at the tail end of the inter-dosing interval, differences between the SBP, DBP, and HR values at Baseline and the last two hours in the inter-dosing interval (Hours 11 and 12) on Day 26 were calculated for each patient. Paired t-tests were performed to test the significance of these differences between Baseline and the last two measuring times. The approach taken to quantify the effects of clonidine on blood pressure was to calculate the difference between the areas under the BP vs. time curves (AUCBP) at Baseline and on Day 26. These values were used to relate the pharmacodynamic effect to dose, as well as to conduct the PK/PD analyses.
Pharmacokinetic-pharmacodynamic modeling was conducted using the blood pressure response data and the Cmax, Cmin and AUCτ values at Day 25 of dosing. […] The data in Table 8 summarize the PK/PD parameters from the sigmoidal Emax model.

With `Clc1cccc(Cl)c1NC1=NCCN1` [clonidine, 2,6-dichloro-N-2-imidazolidinylidene benzeneamine] the “Shape Factor (γ), Diastolic BP vs AUCτ” value was 7.42, the “Shape Factor (γ), Diastolic BP vs Cmax” value was 8.29 and the “Shape Factor (γ), Diastolic BP vs Cmin” value was 7.31. The “Shape Factor (γ), Systolic BP vs AUCτ” value was 6.26, the “Shape Factor (γ), Systolic BP vs Cmax” value was 6.39 and the “Shape Factor (γ), Systolic BP vs Cmin” value was 5.56.
